Measured values published in patent US7052676B2, “Methods for inhibition of HIV replication using a small molecule inhibitor” (priority 2000, dated 2006).
At least one structure is not confirmed: it was looked up by name or label, or the drawing left a doubt.

System: GRO-α production by MDM
Assay type: cell-based, human
Conditions: supernatants 20 hours after exposure to virus

COC[C@H]1OC(=O)c2coc3c2[C@@]1(C)C1=C(C3=O)[C@@H]2CCC(=O)[C@@]2(C)C[C@H]1OC(C)=O [wortmannin]
HIV-1BRU-induced GRO-α production by MDM, sensitivity to inhibitor: insensitive
